Measured values: the supplement of paper PMC4604168 (melanoma cell lines)
The list shows a part of the results. Single values are uncertain, as repeats are few or missing.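 Imaging used 1,536-well plates; nuclei positive for cleaved PARP by antibody were divided by total DNA-stained nuclei to yield the apoptosis fraction. Doses for screening kept most cells viable, and cell lines differ markedly in resting and induced cleaved-PARP levels.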

Assays:
Test in all cases: cleaved PARP positive nuclei fraction relative to DMSO control; melanoma cells; higher = more apoptosis
Settings in all cases: library dose: low library concentration; 72 h
MZ2-MEL = tested on: MZ2-MEL
MeWo = tested on: MeWo
RPMI7951 = tested on: RPMI7951
RVH-421 = tested on: RVH-421
SkMel28 = tested on: SkMel28
SkMel30 = tested on: SkMel30
SkMel5 = tested on: SkMel5
UACC257 = tested on: UACC257
UACC62 = tested on: UACC62

SMILES	cleaved PARP positive nuclei fraction (MZ2-MEL) [%]	cleaved PARP positive nuclei fraction (MeWo) [%]	cleaved PARP positive nuclei fraction (RPMI7951) [%]	cleaved PARP positive nuclei fraction (RVH-421) [%]	cleaved PARP positive nuclei fraction (SkMel28) [%]	cleaved PARP positive nuclei fraction (SkMel30) [%]	cleaved PARP positive nuclei fraction (SkMel5) [%]	cleaved PARP positive nuclei fraction (UACC257) [%]	cleaved PARP positive nuclei fraction (UACC62) [%]
Nc1cccc2c1CN(C1CCC(=O)NC1=O)C2=O (configuration not stated) [lenalidomide] + COC(=O)c1sccc1S(=O)(=O)Nc1ccc(Nc2ccccc2)cc1OC [GSK0660] (first compound 1 µM, partner dose 1 µM)	178	45.8	108	94.3	81.7	7.43	70.4	95.3	265
Cc1cc(N2CCOCC2)cc2[nH]c(-c3c(NC[C@@H](O)c4cccc(Cl)c4)cc[nH]c3=O)nc12 + c1cc(-c2cnn3cc(-c4ccc(OCCN5CCCCC5)cc4)cnc23)ccn1 [Dorsomorphin] (first compound 0.2 µM, partner dose 0.4 µM)	99.1	87.9	116	97.8	80.1	20.9	60.6	221	35.2
O=C(Nc1cccc(Cl)c1)Nc1ncc(CCNc2ncnc3ccsc23)s1 + O=c1cc(-c2cccc3c2Sc2ccccc2S3)oc(N2CCOCC2)c1 [KU55933] (first compound 0.0008 µM, partner dose 1 µM)	114	35.5	46.6	66.8	115	49.2	69.4	149	34.8
C[C@@H]1CCN(C(=O)CC#N)C[C@@H]1N(C)c1ncnc2[nH]ccc12 + COc1ccc(COc2ccc(Cc3cnc(N)nc3N)cc2OC)cc1 [GW2580] (first compound 1 µM, partner dose 1 µM)	196	316	97.9	57.7	80.1	307	57.3	92.8	89.4
Cn1cncc1[C@@](N)(c1ccc(Cl)cc1)c1ccc2c(c1)c(-c1cccc(Cl)c1)cc(=O)n2C [tipifarnib] + CCc1ccc(CCOc2ccc(CC3SC(=O)NC3=O)cc2)nc1 [pioglitazone] (first compound 0.01 µM, partner dose 2 µM)	109	55.8	94.3	92.8	152	23.4	63.9	127	196
COCC[n+]1c2c(n(Cc3cnccn3)c1C)C(=O)c1ccccc1C2=O + Oc1cc(-c2nc(-c3ccccc3)[nH]c2-c2ccncc2)ccc1Cl [L779450] (first compound 0.0004 µM, partner dose 0.2 µM)	489	117	258	32.6	74.1	29.5	191	147	151
Cc1nc(Nc2ncc(C(=O)Nc3c(C)cccc3Cl)s2)cc(N2CCN(CCO)CC2)n1 [dasatanib] + O=S(=O)(c1ccccc1)N(CC(F)(F)F)c1ccc(C(O)(C(F)(F)F)C(F)(F)F)cc1 [T0901317] (first compound 0.004 µM, partner dose 1.4 µM)	51.4	82.5	182	106	186	59.2	30.8	222	71.9
C=CCn1c(=O)c2cnc(Nc3ccc(N4CCN(C)CC4)cc3)nc2n1-c1cccc(C(C)(C)O)n1 + CCN(CC)CCCCNc1ncc2cc(-c3cc(OC)cc(OC)c3)c(NC(=O)NC(C)(C)C)nc2n1 [PD173074] (first compound 0.02 µM, partner dose 0.1 µM)	30	27.3	163	47.2	231	67.6	93.5	78.9	88.5
O=C(CCCCCCC(=O)Nc1ccccc1)NO [vorinostat] + Cc1cc([N+](=O)[O-])ccc1NS(=O)(=O)c1cc(Cl)ccc1Cl [FH535] (first compound 0.08 µM, partner dose 1 µM)	72.6	73.5	139	170	218	59.9	218	212	67.1
Cn1c(Nc2ccc(C(F)(F)F)cc2)nc2cc(Oc3ccnc(-c4ncc(C(F)(F)F)[nH]4)c3)ccc21 + COc1ccc2c(c1)CCC1C2CCC2(C)C(NCCCCCCN3C(=O)C=CC3=O)CCC12 [U73122] (first compound 0.08 µM, partner dose 0.4 µM)	124	52.7	155	87	172	98.2	104	704	137
C=CCn1c(=O)c2cnc(Nc3ccc(N4CCN(C)CC4)cc3)nc2n1-c1cccc(C(C)(C)O)n1 + c1cc(-c2cnn3cc(-c4ccc(OCCN5CCCCC5)cc4)cnc23)ccn1 [Dorsomorphin] (first compound 0.02 µM, partner dose 0.4 µM)	143	57.6	93.3	69.4	136	46.6	65	196	43.3
Cc1cc(N2CCOCC2)cc2[nH]c(-c3c(NC[C@@H](O)c4cccc(Cl)c4)cc[nH]c3=O)nc12 + O=C(Nc1ccccc1)c1cc([N+](=O)[O-])ccc1Cl [GW9662] (first compound 0.2 µM, partner dose 2 µM)	140	58.5	30.7	105	102	53	118	153	106
OCCn1cc(-c2cnc3nnn(Cc4ccc5ncccc5c4)c3n2)cn1 + Cn1cc(/C=C2\C(=O)Nc3cccnc32)c2ccccc21 [GW441756] (first compound 1 µM, partner dose 0.4 µM)	112	29.1	21.3	8.3	216	24.9	75.3	56.6	41
NC(=O)Nc1cc(-c2cccc(F)c2)sc1C(=O)N[C@H]1CCCNC1 + Oc1nc(-c2ccc(C(F)(F)F)cc2)nc2c1CSCC2 [XAV939] (first compound 0.02 µM, partner dose 2 µM)	121	207	93.2	27.5	91.9	198	144	49.7	393
CC(C)(C)c1cnc(CSc2cnc(NC(=O)C3CCNCC3)s2)o1 + COC(=O)c1sccc1S(=O)(=O)Nc1ccc(Nc2ccccc2)cc1OC [GSK0660] (first compound 0.01 µM, partner dose 1 µM)	89.2	305	158	104	38.7	18.6	86.6	60.2	187
C[C@]1(c2nc3c(C(N)=O)cccc3[nH]2)CCCN1 [Veliparib] + Cn1cc(/C=C2\C(=O)Nc3cccnc32)c2ccccc21 [GW441756] (first compound 1.4 µM, partner dose 0.4 µM)	92.2	55.3	112	153	150	27.4	67.2	59.6	64.4
Cc1nc(Nc2ncc(C(=O)Nc3c(C)cccc3Cl)s2)cc(N2CCN(CCO)CC2)n1 [dasatanib] + c1cc(-c2cnn3cc(-c4ccc(OCCN5CCCCC5)cc4)cnc23)ccn1 [Dorsomorphin] (first compound 0.004 µM, partner dose 0.4 µM)	231	106	269	142	195	69	65.2	58.8	167
COCC[n+]1c2c(n(Cc3cnccn3)c1C)C(=O)c1ccccc1C2=O + N#Cc1c(O)c2c(-c3ccc(-c4ccccc4O)cc3)csc2[nH]c1=O [A769662] (first compound 0.0004 µM, partner dose 2 µM)	102	105	41.8	21.6	96.8	55.7	69.7	48.9	251
Nc1cccc2c1CN(C1CCC(=O)NC1=O)C2=O (configuration not stated) [lenalidomide] + O=C1NC(=O)/C(=C/c2ccc(-c3ccc(F)cc3O)o2)S1 [AS252424] (first compound 1 µM, partner dose 1 µM)	91.1	51.8	77.3	27.7	89.8	25.6	28.3	78.6	39
OCCn1cc(-c2cnc3nnn(Cc4ccc5ncccc5c4)c3n2)cn1 + COc1cc2ncnc(Nc3ccc(Oc4ccccc4)cc3)c2cc1OC [SrcI1] (first compound 1 µM, partner dose 2 µM)	123	138	67.8	66.4	116	115	298	66.9	168
CC1(C)NC(=O)N(c2ccc([N+](=O)[O-])c(C(F)(F)F)c2)C1=O [nilutamide] + COC(=O)c1sccc1S(=O)(=O)Nc1ccc(Nc2ccccc2)cc1OC [GSK0660] (first compound 1 µM, partner dose 1 µM)	69.3	289	64.7	37	146	211	54	282	164
CC(C)(C)c1cnc(CSc2cnc(NC(=O)C3CCNCC3)s2)o1 + COc1cc(N2CCC(N3CCN(C)CC3)CC2)ccc1Nc1ncc(Cl)c(Nc2ccccc2S(=O)(=O)C(C)C)n1 [NVP-TAE684] (first compound 0.01 µM, partner dose 0.08 µM)	115	85.9	88.7	102	76.6	43.9	60.4	160	139
COc1cc(Nc2ncc(F)c(Nc3ccc4c(n3)NC(=O)C(C)(C)O4)n2)cc(OC)c1OC [Tamatinib] + COc1cc2ncnc(Nc3ccc(Oc4ccccc4)cc3)c2cc1OC [SrcI1] (first compound 0.4 µM, partner dose 2 µM)	169	149	93.4	80.5	233	49.1	191	30.2	104

Exported in CSV form: entries from further up.
SMILES,cleaved PARP positive nuclei fraction (MZ2-MEL) [%],cleaved PARP positive nuclei fraction (MeWo) [%],cleaved PARP positive nuclei fraction (RPMI7951) [%],cleaved PARP positive nuclei fraction (RVH-421) [%],cleaved PARP positive nuclei fraction (SkMel28) [%],cleaved PARP positive nuclei fraction (SkMel30) [%],cleaved PARP positive nuclei fraction (SkMel5) [%],cleaved PARP positive nuclei fraction (UACC257) [%],cleaved PARP positive nuclei fraction (UACC62) [%]
"Cn1c(Nc2ccc(C(F)(F)F)cc2)nc2cc(Oc3ccnc(-c4ncc(C(F)(F)F)[nH]4)c3)ccc21 + COc1ccc2c(c1)CCC1C2CCC2(C)C(NCCCCCCN3C(=O)C=CC3=O)CCC12 [U73122] (first compound 0.08 µM, partner dose 0.4 µM)",124,52.7,155,87,172,98.2,104,704,137
"C=CCn1c(=O)c2cnc(Nc3ccc(N4CCN(C)CC4)cc3)nc2n1-c1cccc(C(C)(C)O)n1 + c1cc(-c2cnn3cc(-c4ccc(OCCN5CCCCC5)cc4)cnc23)ccn1 [Dorsomorphin] (first compound 0.02 µM, partner dose 0.4 µM)",143,57.6,93.3,69.4,136,46.6,65,196,43.3
